Test results taken from PubChem BioAssay AID624291 (National Center for Advancing Translational Sciences (NCATS), 2012).
The whole screen tested about 350,000 compounds, of which about 220 (0.063%) were called active. The inconclusive results got no clear call from the source; some entries with a clear call stand among them for comparison. Calls come from the whole dose curve; as a rule, active = well fitted activation curve with a large enough effect; inconclusive = small, poorly fitted or top-dose-only effect; inactive = no such curve, though single readings can be large or run the other way. Potencies beside an inconclusive call are fits to weak or partial responses and may not hold up.

Assay: qHTS for Activators of Integrin-Mediated Alleviation for Muscular Dystrophy; note: nearly all actives have a fitted effect of over 60% in size
Settings: alpha7betagal myoblasts, beta-gal FDG fluorescence, 48 h; series mostly up to 38.3 µM
Outline: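 Alpha7betagal+/- myoblasts (passage 13) were plated 16-24 hr, then exposed to compounds (1:260 dilution of DMSO stock) for 48 hours at 37C. After MPER lysis, β-galactosidase reporter activity was read as FDG fluorescence (ex 480/em 540) after 30 minutes.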
Potency is the fitted concentration of half-maximal effect.

SMILES | Potency
COc1cc(-c2noc(C)c2C(=O)NCCc2cccs2)cc(OC)c1OC | inactive
CCC1(c2ccccc2)NC(=O)N(CC(=O)Nc2cccnc2Cl)C1=O (stereo not drawn) | inconclusive: 2.82 µM [activator, single point]
O=S(=O)(Nc1ncccn1)c1ccc(NC(=S)Nc2ccccc2Cl)cc1 | inconclusive: 14.1 µM [activator, partial curve, poor fit]
NS(=O)(=O)c1ccc(N/N=C/c2ccccn2)c([N+](=O)[O-])c1 | inconclusive: 28.2 µM [activator, single point]
CCOCCCNC(=O)CCN1C(=O)c2ccccc2Sc2ncccc21 | inconclusive: 2.24 µM [activator, partial curve, poor fit]
C=CCn1c(SCC(=O)c2c(N)n(C3CC3)c(=O)[nH]c2=O)nnc1-c1ccoc1C | inconclusive: 4.47 µM [activator, single point]
O=C(O)/C=C/C(=O)Nc1ccc(-n2ccc(C(F)(F)F)n2)cc1 | inconclusive: 10 µM [activator, single point]
CCc1cc(C(=O)Nc2ccc(S(=O)(=O)NC3=NCCCCC3)cc2)sc1C | inactive
CC(C)(C)c1nc(SCC(=O)NCc2cccs2)c2ccccc2n1 | inconclusive: 12.6 µM [activator, partial curve, poor fit]
COCCn1c(=O)c2c(nc3n2CCCN3CCc2ccc(OC)c(OC)c2)n(C)c1=O | inconclusive: 5.01 µM [activator, single point]
Cc1ccc(C(=O)NCC(=O)OCC(=O)c2ccc3c(c2)NC(=O)CO3)cc1C | inactive
CCCCOC(=O)Nc1ccc(C(C)C)cc1 | inactive
O=C(Nc1ccccc1)C1C2CCCCC21 (stereo not drawn) | inconclusive: 14.1 µM [activator, partial curve, poor fit]
COc1ccc(NC(=O)C2CCCN2S(=O)(=O)c2cccc3nsnc23)c(OC)c1 (stereo not drawn) | inconclusive: 3.16 µM [activator, single point]
O=C(O)c1cccc2c1/C(=N/O)c1ccccc1-2 | inconclusive: 28.2 µM [activator, partial curve, poor fit]
COc1cccc(/C=C(\C#N)c2nc3ccccc3[nH]2)c1OCC(=O)O | inconclusive: 0.501 µM [activator, full curve, poor fit]
CN(C(=O)COC(=O)c1ccc(NS(=O)(=O)c2cccs2)cc1)C1CCCCC1 | inconclusive: 5.01 µM [activator, single point]
C=CCOc1c(Br)cc(CNc2ccc(NC(=O)C(C)C)c(OC)c2)cc1OCC | inconclusive: 28.2 µM [activator, single point]
CC1CCCC(C)N1C(=O)COC(=O)CCC(=O)c1cccs1 (stereo not drawn) | inconclusive: 5.01 µM [activator, single point]
CCCCOc1ccc(C(=O)NCC(=O)NC(C)CCc2ccccc2)cc1 (stereo not drawn) | inconclusive: 5.01 µM [activator, single point]
C/C(CC(=O)Nc1cccc(C(F)(F)F)c1)=N\NC(=O)Cc1ccccc1 | inconclusive: 28.2 µM [activator, single point]
CC(C)CCn1c(=O)c2ccccc2n2c(CCC(=O)NC3CCN(Cc4ccccc4)CC3)nnc12 | inconclusive: 4.47 µM [activator, partial curve, poor fit]
S=C(NCCN1CCOCC1)N/N=C/c1cccs1 | inactive

SMILES | Potency
CC(=O)NCc1cc(-c2ccc(Cl)cc2)no1 | inconclusive: 11.2 µM [activator, partial curve, poor fit]
CCOc1ccc(S(=O)(=O)N(CC)CC)cc1N | inconclusive: 5.01 µM [activator, single point]
COCCNC(=O)c1ccc(C2SCC(=O)N2Cc2ccco2)cc1 (stereo not drawn) | inactive
Cc1nnc(NC(=O)CCC2CCCCC2)s1 | inactive
CCC[N+](C)(C)C(C)C(OC(C)=O)c1ccccc1 (stereo not drawn) | inconclusive: 28.2 µM [activator, single point]
CN1CCN(S(=O)(=O)c2ccc3c(c2)oc(=O)n3C)CC1 | inconclusive: 1.78 µM [activator, full curve, poor fit]
CNc1nc(-c2ccc3c(c2)CCN3C(=O)CC(C)(C)C)c(C)s1 | inactive
CC1(C)CC(Nc2ccc(C(F)(F)F)cc2[N+](=O)[O-])CC(C)(C)N1 | inactive
COc1ccc(S(=O)(=O)N2CCOCC2)cc1NC(=O)COc1ccc(C)cc1 | inconclusive: 28.2 µM [activator, single point]
Nc1ncnc(N)c1NC(=O)c1ccc(OCc2ccccc2)cc1 | inactive
CCOCCCNC(=O)c1cn(C)c2ccc(S(=O)(=O)N3CCCC3)cc2c1=O | inconclusive: 28.2 µM [activator, single point]
Cc1ccc(-n2c(=S)[nH]c3c(oc4ccccc43)c2=O)cc1C | inactive
Cc1ccc[n+](CC(=O)c2ccc(NC(=O)c3ccccc3)cc2)c1 | inactive
c1ccc2c(-c3csc(-c4ccncc4)n3)c[nH]c2c1 | inactive
Cc1cccc(/C=N/NC(=O)c2ccc(NC(=O)c3cccc(Cl)c3)cc2)n1 | inconclusive: 5.01 µM [activator, single point]
COc1ccc(Cl)cc1NC(=O)COC(=O)CNC(=O)c1ccc([N+](=O)[O-])c(C)c1 | inconclusive: 2.82 µM [activator, single point]
Cc1cccc(NC(=O)c2cccnc2Cl)n1 | inconclusive: 0.891 µM [activator, full curve, poor fit]
CC(=O)Cc1nsc(NC(=O)c2ccc(-c3ccc(F)cc3)o2)n1 | inconclusive: 10 µM [activator, single point]
CC(=O)Nc1ccc(C(=S)NCC2(N(C)C)CCCCC2)cc1 | inconclusive: 28.2 µM [activator, single point]
O=C(COc1ccccc1Cl)Nc1ccc2c(c1)OCCO2 | inactive
COc1ccc(CNC(=O)c2ccc3c(=O)n(-c4ccccc4)c(=O)[nH]c3c2)cc1 | inconclusive: 15.8 µM [activator, partial curve, poor fit]
CCOc1ccc2nc(NC(=O)CN3CCOCC3)sc2c1 | inconclusive: 28.2 µM [activator, single point]
Cc1ccc(CNc2ccccc2C(=O)O)s1 | inconclusive: 2.24 µM [activator, single point]

SMILES | Potency
Cc1onc(-c2c(F)cccc2Cl)c1C(=O)N(C)C1CCCCC1 | inconclusive: 28.2 µM [activator, single point]
O=C(Nc1ccccc1-c1nnn(CC(=O)N2CCN(c3ccccc3)CC2)n1)c1cccs1 | inconclusive: 5.62 µM [activator, partial curve, poor fit]
CCc1ccc2[nH]c(=O)c(C(c3nnnn3CC3CCCO3)N3CCCc4ccccc43)cc2c1 (stereo not drawn) | inactive
O=C(NC(=S)Nc1ccc(S(=O)(=O)N2CCCC2)cc1)c1cccs1 | inconclusive: 11.2 µM [activator, single point]
COc1ccc(N(Cc2ccccc2)S(=O)(=O)c2cccc(C(=O)Nc3ccccn3)c2)cc1 | inconclusive: 7.08 µM [activator, partial curve]
CCC(=O)c1ccc(OCC(=O)Nc2cc(S(=O)(=O)N3CCCCC3)ccc2N2CCN(CC)CC2)cc1 | inactive
C=C(C)CN(CC)C(=O)Cn1cnc2c(oc3ccccc32)c1=O | inconclusive: 6.31 µM [activator, partial curve, poor fit]
O=C(Nc1nc2ccccc2s1)c1ccccc1[N+](=O)[O-] | inactive
CC[C@@]1(c2ccccc2OC)C(=O)N(C(=O)OC)N1C(=O)OC | inconclusive: 3.55 µM [activator, single point]
CC1CN(C(=O)C2CC2)C(C)CN1C(=O)C1CC1 (stereo not drawn) | inactive
C=CCOc1cccc(CNCc2cccnc2)c1 | inconclusive: 8.91 µM [activator, partial curve, poor fit]
Cn1c(N2CCOCC2)c(/C=N/O)c2ccccc21 | inactive
C/C(Cc1ccccc1)=N\NC(=O)CNC(=O)c1ccc(F)cc1 | inconclusive: 28.2 µM [activator, single point]
CC(C)(C)NC(=O)NC(=O)CN1c2cccc3cccc(c23)S1(=O)=O | inconclusive: 5.01 µM [activator, single point]
O=C(NNc1c2ccccc2nc2ccccc12)c1ccc(Cl)cc1 | inconclusive: 2.51 µM [activator, single point]
COc1cccc(CNC(=O)COC(=O)CCc2cc(OC)c(OC)c(OC)c2)c1 | inconclusive: 10 µM [activator, single point]
CCOC(=O)c1ccc(NC(=S)N(CCCN2CCCCC2)Cc2ccco2)cc1 | inconclusive: 14.1 µM [activator, single point]
COc1cccc(NC(=O)CN(C)C(C)C(=O)N2CCCC2)c1 (stereo not drawn) | inconclusive: 3.16 µM [activator, single point]
O=C1OCc2ccc(NC(=O)c3ccccc3C(=O)O)cc21 | inconclusive: 11.2 µM [activator, partial curve, poor fit]
O=S(=O)(Nc1nc2ccccc2nc1N1CCc2ccccc2C1)c1ccc(Br)cc1 | inconclusive: 5.01 µM [activator, single point]
O=C(COc1cccnc1[N+](=O)[O-])Nc1ncc(Cl)cc1Cl | inactive
O=C(CSc1nc(O)cc(=O)n1C1CCCC1)Nc1cccc(Cl)c1Cl | inconclusive: 10 µM [activator, single point]

Part of the list above, reformatted.
SMILES	Potency
COc1cc(-c2noc(C)c2C(=O)NCCc2cccs2)cc(OC)c1OC	inactive
CCC1(c2ccccc2)NC(=O)N(CC(=O)Nc2cccnc2Cl)C1=O (stereo not drawn)	inconclusive: 2.82 µM [activator, single point]
O=S(=O)(Nc1ncccn1)c1ccc(NC(=S)Nc2ccccc2Cl)cc1	inconclusive: 14.1 µM [activator, partial curve, poor fit]
NS(=O)(=O)c1ccc(N/N=C/c2ccccn2)c([N+](=O)[O-])c1	inconclusive: 28.2 µM [activator, single point]
CCOCCCNC(=O)CCN1C(=O)c2ccccc2Sc2ncccc21	inconclusive: 2.24 µM [activator, partial curve, poor fit]
